Test results from patent publication US9255088B2, “Premature-termination-codons readthrough compounds” (The Regents of the University of California, priority 2010, dated 2016).

Tested on: ATM-Ser1981 autophosphorylation in AT229LA cells (TAG A)
Experiment: Flow cytometry ATM-Ser1981 phosphorylation (FC-ATM) in AT229LA cells
Assay type: cell-based, human
Details: isotype controls
Description: To further compare the readthrough activity of RTC#13 and #14 with gentamicin and G418, we used a flow cytometry (FC)-based ATM-Ser1981 phosphorylation assay to assess readthrough activity in AT229LA cells (TAG A; FIG. 4). […] This was consistent with previous ATM IRIF data (FIG. 3c). Encouragingly, ATM-Ser1981 phosphorylation levels induced by RTC#13 and #14 were similar to those induced by the same concentrations of gentamicin and G418 in the same cell line (FIG. 4).
AT229LA cells (TAG A) were treated with RTC#13 and #14 for 4 d and analyzed for ATM-Ser1981 phosphorylation using FC. Gentamicin and G418 were used as positive readthrough controls. […] Results were consistent in three independent experiments.
FC-SMC1 assay was performed as recently described (Nahas et al., 2009). FC-ATM-Ser1981 assay was based on Honda's assay (Honda et al., 2009, Leukemia. 23:409-414) with modifications. In brief, cells were resuspended in PBS and radiated for 10 Gy. After 1 h, the cells were fixed and permeabilized using the FIX & PERM cell permeabilization kit (Invitrogen). The cells were then incubated with 1 μl of mouse ATM-Ser1981 antibody (Cell Signaling Technology) for 2 h at room temperature. […] Cells were next washed and resuspended in PBS with 0.2% paraformaldehyde and analyzed using a FACSCalibur (BD).

Structure (SMILES)	autofluorescence
N=C1NC(=O)C(=Cc2ccc(-c3ccccc3[N+](=O)[O-])o2)S1 [RTC13, 2-imino-5-{[5-(2-nitrophenyl)-2-furyl]methylene}-1,3-thiazolidin-4-one]	Neither of the two compounds produces green autofluorescence; also recorded: Neither compound produced autofluorescence
CC(C)(C)c1ccc(O)c(N=Cc2cccc([N+](=O)[O-])c2)c1 [RTC14, 4-tert-butyl-2-[(3-nitrobenzylidene)amino]pheno]	Neither of the two compounds produces green autofluorescence; also recorded: Neither compound produced autofluorescence

“Also recorded” adds a separate entry of the source.
